For assay [1], the target named is OsMPK7 (rice (Oryza sativa)). The experiment in a line: two-hybrid; OsMPK7 in pGBKT7 as bait, preys in pGADT7; growth on QD (quadruple-dropout medium lacking Ade, His, Leu and Trp), DD as control.
Assay [2] has as its target OsMPK7 (nLUC fusion) (rice (Oryza sativa)). The experiment in a line: split reporter; luciferase complementation in N. benthamiana leaves: nLUC-OsMPK7 co-injected with each cLUC fusion, 48 h, D-luciferin, chemiluminescence imaging.

No constants are given. Whether binding was seen depends on the method and setting. A result given as binding can be weak or reduced; the word gives no strength. For some of these results: In cells and extracts the contact can be indirect. For some of these results: Tags and fused reporters may be left off the sequences shown.

B1: OsPYL5 (protein, UniProt Q6I5C3 1-209)
chain: MVGLVGGGGWRVGDDAAGGGGGGAVAAGAAAAAEAEHMRRLHSHAPGEHQCSSALVKHIKAPVHLVWSLVRSFDQPQRYKPFVSRCVVRGGDLEIGSVREVNVKTGLPATTSTERLELLDDDEHILSVKFVGGDHRLRNYSSIVTVHPESIDGRPGTLVIESFVVDVPDGNTKDETCYFVEAVIKCNLTSLAEVSERLAVQSPTSPLEQ
For B1, the binding entry in assay [1] is “binds”.

B2: OsPP2C50 (cLUC fusion) (protein, UniProt Q6L5H6 1-387)
chain: MAAAAAAAAICGEDETAARVGCTGEWAGGIERVDLGERKEAVAAAGAGKRSVYLMDCAPVWGCASTRGRSAEMEDASAAVPRFADVPVRLLASRRDLDALGLDADALRLPAHLFGVFDGHGGAEVANYCRERIHVVLSEELKRLGKNLGEMGEVDMKEHWDDVFTKCFQRVDDEVSGRVTRVVNGGGEVRSEPVTAENVGSTAVVALVCSSHVVVANCGDSRIVLCRGKEPVALSIDHKPDRKDERARIEAQGGKVIQWNGYRVSGILAMSRSIGDRYLKPFVIPKPEVMVVPRAKDDDCLILASDGLWDVVSNEEACKVARRQILLWHKNNGAASPLSDEGEGSTDPAAQAAADYLMRLALKKGSEDNITVIVVDLKPRKKLKNIS
For the molecule B2, the binding result in assay [2] was “binds”.

B3: OsPP2C50 (protein, UniProt Q6L5H6 1-387)
chain: MAAAAAAAAICGEDETAARVGCTGEWAGGIERVDLGERKEAVAAAGAGKRSVYLMDCAPVWGCASTRGRSAEMEDASAAVPRFADVPVRLLASRRDLDALGLDADALRLPAHLFGVFDGHGGAEVANYCRERIHVVLSEELKRLGKNLGEMGEVDMKEHWDDVFTKCFQRVDDEVSGRVTRVVNGGGEVRSEPVTAENVGSTAVVALVCSSHVVVANCGDSRIVLCRGKEPVALSIDHKPDRKDERARIEAQGGKVIQWNGYRVSGILAMSRSIGDRYLKPFVIPKPEVMVVPRAKDDDCLILASDGLWDVVSNEEACKVARRQILLWHKNNGAASPLSDEGEGSTDPAAQAAADYLMRLALKKGSEDNITVIVVDLKPRKKLKNIS
As to B3, the binding entry in assay [1] is “binds”.

B4: OsSAPK8 (protein, UniProt Q7Y0B9 1-371)
chain: MAAAGAGAGAPDRAALTVGPGMDMPIMHDSDRYELVRDIGSGNFGVARLMRDRRTMELVAVKYIERGEKIDDNVQREIINHRSLKHPNIIRFKEVILTPTHLAIVMEYASGGELFERICKNVRFSEDEARYFFQQLISGVSYCHSMQVCHRDLKLENTLLDGSPAPRLKICDFGYSKSSVLHSQPKSTVGTPAYIAPEVLLKKEYDGKTADVWSCGVTLYVMVVGAYPFEDPEEPKNFRKTIQRILNVQYSIPENVDISPECRHLISRIFVGDPSLRITIPEIRSHGWFLKNLPADLMDDDSMSSQYEEPDQPMQTMDQIMQILTEATIPPACSRINHILTDGLDLDDDMDDLDSDSDIDVDSSGEIVYAM
Take B4: the binding result in assay [1] was “no binding”.

The record behind these values is PMC10764673.
